# Experimental data taken from PubChem BioAssay AID1645886 (National Center for Advancing Translational Sciences (NCATS), 2021).
# The chains behind the UniProt entries cited, without tags or fusion partners. Where a name states a change or a piece, a line headed by the entry shows the natural chain unless it says otherwise.
# UniProt Q8WZA2: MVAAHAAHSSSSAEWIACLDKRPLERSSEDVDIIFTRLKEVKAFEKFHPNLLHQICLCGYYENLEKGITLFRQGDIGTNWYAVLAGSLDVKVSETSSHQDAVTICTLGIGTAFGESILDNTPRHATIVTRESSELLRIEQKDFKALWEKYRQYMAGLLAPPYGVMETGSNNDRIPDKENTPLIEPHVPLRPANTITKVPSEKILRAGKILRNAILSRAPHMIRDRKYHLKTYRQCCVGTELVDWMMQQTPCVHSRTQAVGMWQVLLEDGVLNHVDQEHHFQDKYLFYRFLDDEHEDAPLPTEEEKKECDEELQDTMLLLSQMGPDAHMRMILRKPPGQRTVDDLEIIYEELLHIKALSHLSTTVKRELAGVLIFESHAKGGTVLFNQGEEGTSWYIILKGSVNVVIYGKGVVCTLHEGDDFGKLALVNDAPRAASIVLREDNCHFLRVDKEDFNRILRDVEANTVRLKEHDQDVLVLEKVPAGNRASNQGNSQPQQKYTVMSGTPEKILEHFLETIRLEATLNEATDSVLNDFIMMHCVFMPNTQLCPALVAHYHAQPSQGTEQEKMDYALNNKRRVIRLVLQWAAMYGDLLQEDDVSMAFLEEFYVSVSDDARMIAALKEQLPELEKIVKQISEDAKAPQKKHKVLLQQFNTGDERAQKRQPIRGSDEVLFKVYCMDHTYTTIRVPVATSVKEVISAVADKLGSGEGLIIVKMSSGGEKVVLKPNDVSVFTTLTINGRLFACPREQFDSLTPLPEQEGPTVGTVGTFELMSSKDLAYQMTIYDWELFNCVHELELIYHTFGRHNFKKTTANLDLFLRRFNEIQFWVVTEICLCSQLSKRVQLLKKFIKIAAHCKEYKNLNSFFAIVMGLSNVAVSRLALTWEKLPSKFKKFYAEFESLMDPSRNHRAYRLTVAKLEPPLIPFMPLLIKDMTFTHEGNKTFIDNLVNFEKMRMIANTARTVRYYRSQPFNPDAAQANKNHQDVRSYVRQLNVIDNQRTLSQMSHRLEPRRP
# Where “and” joins values, the source holds several entries; their conditions need not be identical. Identical values can stand only once. Most of the hits are listed elsewhere, so they are rarer here than in the full data. Records with an inconclusive call do not appear. Calls of active or inactive are those of the source. Calls follow the shape of the dose curve; as a rule, active = well fitted inhibition curve with a large enough effect; inconclusive = small, poorly fitted or top-dose-only effect; inactive = no such curve, though single readings can be large or run the other way.
# Target: Rap guanine nucleotide exchange factor 4 (Homo sapiens) (UniProt Q8WZA2)
# Assay: Validation qHTS for antagonist of cAMP-regulated guanine nucleotide exchange factor 4 (EPAC2); also: nearly all actives have a fitted effect of over 40% in size
# Conditions: EPAC2 Rap1B BODIPY-GDP exchange, fluorescence
# Description: Principle Investigator: Xiaodong Cheng Ph.D. The University of Texas Medical Branch, […], TX MLPCN Grant: NS066510 In multi-cellular eukaryotic organisms, the effects of cAMP are transduced by two ubiquitously-expressed intracellular cAMP receptors, the classic protein kinase A/cAMP-dependent protein kinase (PKA/cAPK) and the more recently discovered exchange protein directly activated by cAMP/cAMP-regulated guanine nucleotide exchange factor (EPAC/cAMP-GEF). Both PKA and EPAC are ubiquitously expressed in all tissues, and an increase in intracellular cAMP levels will lead to the activation of both PKA and EPAC. Therefore, careful dissections of the individual role and relative contribution of EPAC and PKA within the overall cAMP signaling in various model systems are critical for further elucidating the mechanism of cAMP signaling. To date no EPAC-specific antagonists and agonist, as well as isoform-specific agonists have been reported, and developing EPAC-specific pharmacological probes to determine the physiological functions that EPAC play in the overall cAMP-mediated signaling remains a major challenge within the research field. […] This qHTS will be used to screen the Molecular Libraries Small Molecule Repository (MLSMR) as a concentration-titration series using the NCGC unique quantitative screening (qHTS) platform to find activators for EPAC1. […] Activators are identified by monitoring the change in fluorescence signal as the exchanged free BODIPY-GDP has a reduced fluorescence compared to Rap1-bound BODIPY-GDP. […]
# Briefly, three uL of reagents (100 nM EPAC2, 250 nM RAP1B-BODIPY-GDP, 50 uM GDP) were dispensed into a 1536-well Greiner black solid-bottom medium binding assay plate. […] The assay plates were read at 5 minute intervals for 30 minutes in the ViewLux plate reader using 480nm excitation and 540nm emission filters. […]
Compound,"activity, negative = inhibition (at 112 µM (top of the series))","activity, negative = inhibition (at 151 µM (top of the series))","activity, negative = inhibition (at 239 µM (top of the series))"
Cc1cccc(CCN2CCC(C(=O)c3ccc(NS(C)(=O)=O)cc3)CC2)n1,inactive: -16.3% and inactive: -18.9%,inactive: -6.06%,
Nc1ccc(N)c([N+](=O)[O-])c1,,,inactive: -18.2%
